No constants are given. Whether binding was seen depends on the method and setting. Some binding calls cover weakened binding; strength is not graded here.
Columns and labels:
[1] = biological target: fusion protein 7.6 (HEG1 amino acid No. 783 to 991 bonded to SLURPgpi) (human); experiment: Western blot of SLURPgpi fusion proteins
[2] = biological target: fusion protein 7.62 (SEQ ID NO: 45 bonded to SLURPgpi) (human); experiment: Western blot of SLURPgpi fusion proteins
[3] = biological target: fusion protein 7.623 (SEQ ID NO: 48 bonded to SLURPgpi) (human); experiment: Western blot of SLURPgpi fusion proteins
[4] = biological target: fusion protein 7.6 (HEG1 amino acid No. 783 to 991 bonded to SLURPgpi) (human); experiment: Western blot (FIG. 14B legend)
[5] = biological target: fusion protein 7.62 (SEQ ID NO: 45 bonded to SLURPgpi) (human); experiment: Western blot (FIG. 14B legend)
[6] = biological target: fusion protein 7.623 (SEQ ID NO: 48 bonded to SLURPgpi) (human); experiment: Western blot (FIG. 14C legend)

Measured: binding

B1: SKM9-2 antibody (antibody, mouse IgG1, kappa, V domains shown)
VH: QVQLQQPGAELVRPGASVKLSCKASGFSFTTYWITWVKQRPGQGLEWIGMIHPSDSETRLSQTFKDKATLTVDKSSNTAYMQFSSPTSEDSAVYYCVRDFDVWGAGTTVTVSS
VL: DVLMTQTPLSLPVSLGDQASISCRSSQNIVHNNGNTYLGWYLQKPGQSPKLLIFKVSNRFSGVPDRFSGSGSGTDFTLKISRVEAEDLGVYYCFQGSHIPRTFGGGTRLEIKR
notes: also called monoclonal antibody produced from the SKM9-2 hybridoma
binds: all assays above

Reference: US20190071517A1 (KANAGAWA PREFECTURAL HOSPITAL ORGANIZATION, published 2019)
